This note sets out measurements from patent US9625448B2, “Double caged GABA compounds, bis-CNB-GABA” (The Trustees of Princeton University, priority 2014, dated 2017).

SMILES strings stand for the structures.

In this series the test system is cerebellar molecular layer interneurons. Briefly: Photolysis-evoked GABAergic currents in cerebellar molecular layer interneurons. Format: cell-based. The conditions noted are these: n=3. As for the experimental part:
The biological properties of our synthetic bis-CNB-GABA were evaluated using whole-cell patch recording from cerebellar molecular layer interneurons.
FIGS. 42A-42E illustrate physiological responses to photolysis of bis-CNB-GABA. FIG. 42A illustrates a cerebellar molecular layer interneuron visualized using Alexa 488 in the patch recording electrode solution. Referring to FIG. 42A, bis-CNB-GABA (0.6 mM) was photolyzed with a 405 nm laser spot in 3 different locations (indicated by 1, 2 and 3). Still referring to FIG. 42A, laser-evoked GABAergic currents are shown on the right panel. Still referring to FIG. 42A, gray traces show individual sweeps and black traces are averages. Still referring to FIG. 42A, the gray sweep at bottom indicates the laser flash (1 ms duration, intensity 5 mW) as recorded using a photodiode. FIG. 42B illustrates bis-CNB-GABA (1.4 mM) was photolyzed with a […] LED at progressively higher flash energies (0.25-1.1 mW, 5-50 ms, 1.25-55 μJ). FIG. 42C illustrates the same experiment as shown in FIG. 42B with Responses to mono-CNB-GABA (50 μM). […] FIG. 42E illustrates laser-evoked whole-cell current recorded in the absence and presence of 3 μM gabazine, a GABA receptor antagonist. […]
To test whether bis-CNB-GABA-evoked responses resemble physiological events in their kinetics, we measured the kinetic properties of flash responses. […]

In the case of `O=C(CCCNC(C(=O)O)c1ccccc1[N+](=O)[O-])OC(C(=O)O)c1ccccc1[N+](=O)[O-]` (centres unmarked) [bis-CNB-GABA, 2-((4-(Carboxy(2-nitrophenyl)methoxy)-4-oxobutyl)amino)-2-(2-nitrophenyl)acetic acid], the “log-log slope, evoked current amplitude vs flash energy” value came out at 2.2±0.1.
As for `NCCCC(=O)OC(C(=O)O)c1ccccc1[N+](=O)[O-]` (centres unmarked) [mono-CNB-GABA], the figure is 1.3±0.1.
